In the supplement of paper PMC4635364:
Counter-ions that a name gives are not always drawn. Some of the results follow. Repeats in this data set agree poorly, so a single value says little.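 Cells: ReNCell VM human fetal ventral-midbrain neural progenitors, differentiated mitogen-free. Blinded raters compared doublecortin-stained (early neurons) or tyrosine hydroxylase-stained (dopaminergic neurons) images with untreated wells, where 0 means no change. After repeats and both raters were averaged, compounds scoring 2 or above became hits for retesting.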

Experiments:
ReNCell VM [1] = test: neuronal differentiation score (DCX+ cell fraction vs untreated, manual image score) (score (-3 to 3)); higher = more neuronal differentiation; conditions: 2 uM, 2 weeks
ReNCell VM [2] = test: dopaminergic neuron differentiation score (TH+ cell fraction vs untreated, manual image score) (score (0 to 3)); higher = more TH+ dopaminergic neuron differentiation; conditions: 2 uM, 4 weeks, BDNF 10 ng/ml + GDNF 10 ng/ml

Q: What does the source list for `CCCCC1C(=O)N(c2ccccc2)N(c2ccc(O)cc2)C1=O` (stereo not given) [Oxyphenbutazone]?
A: neuronal differentiation score (ReNCell VM [1]; library: Prestwick): inactive: 0; dopaminergic neuron differentiation score (ReNCell VM [2]; library: Prestwick): inactive: 1

Q: `O=C(O)c1cn(C2CC2)c2cc(N3CCNCC3)c(F)cc2c1=O` [Ciprofloxacin hydrochloride monohydrate] was tested. Which neuronal differentiation score (ReNCell VM [1]; library: Prestwick) did it give?
A: Its neuronal differentiation score is inactive: 0.

Q: What about the “dopaminergic neuron differentiation score” value (ReNCell VM [2]; library: Prestwick) of the same molecule?
A: The value was inactive: 0.

Q: Which results are given for `Cc1cccc(Nc2ccccc2C(=O)O)c1C`?
A: neuronal differentiation score (ReNCell VM [1]; library: Spectrum): inactive: 0; dopaminergic neuron differentiation score (ReNCell VM [2]; library: Spectrum): inactive: 0

Q: For `O=C(O)c1cccc(C(=O)O)n1` [2,6-pyridinedicarboxylic acid], which neuronal differentiation score (ReNCell VM [1]; library: Natural) is on record?
A: The neuronal differentiation score was inactive: 1.

Q: What about the “dopaminergic neuron differentiation score” value (ReNCell VM [2]; library: Natural) of the same molecule?
A: The value was inactive: 0.

Q: Which neuronal differentiation score (ReNCell VM [1]; library: Prestwick) does the source give for `COC(=O)C1=C(C)NC(C)=C(C(=O)OCC(C)C)C1c1ccccc1[N+](=O)[O-]` (stereo not given) [Nisoldipine] here?
A: Its neuronal differentiation score is inactive: 0.

Q: What about the “dopaminergic neuron differentiation score” value (ReNCell VM [2]; library: Prestwick) of the same molecule?
A: Its value is inactive: 0.

Q: For `C[C@H](CCC(=O)O)[C@H]1CC[C@H]2[C@@H]3[C@@H](O)C[C@@H]4C[C@H](O)CC[C@]4(C)[C@H]3CC[C@]12C` [Urosiol], which neuronal differentiation score (ReNCell VM [1]; library: Prestwick) is on record?
A: Its neuronal differentiation score is inactive: 0.

Q: What about the “dopaminergic neuron differentiation score” value (ReNCell VM [2]; library: Prestwick) of the same molecule?
A: The value was inactive: 0.

Q: How did the neuronal differentiation score (ReNCell VM [1]; library: Spectrum) turn out when `C1N2CN3CN1CN(C2)C3` was run?
A: Its neuronal differentiation score is inactive: 1.

Q: And the “dopaminergic neuron differentiation score” value (ReNCell VM [2]; library: Spectrum)?
A: Its value is inactive: 0.

Q: Which neuronal differentiation score (ReNCell VM [1]; library: LOPAC) does the source give for `O=c1[nH]c2cc(C(F)(F)F)ccc2n1-c1cc(C(F)(F)F)ccc1O` here?
A: The neuronal differentiation score was inactive: 0.

Q: What about the “dopaminergic neuron differentiation score” value (ReNCell VM [2]; library: LOPAC) of the same molecule?
A: Its value is inactive: 0.

Q: `O=C1C=CC(=O)C2=C1C1c3ccccc3C2c2ccccc21` was tested. Which neuronal differentiation score (ReNCell VM [1]; library: Tocriscreen) did it give?
A: Its neuronal differentiation score is inactive: 0.

Q: And the “dopaminergic neuron differentiation score” value (ReNCell VM [2]; library: Tocriscreen)?
A: Its value is inactive: 0.

Q: Which results are given for `O=C(Oc1cc(O)cc2c1C[C@@H](OC(=O)c1cc(O)c(O)c(O)c1)[C@@H](c1cc(O)c(O)c(O)c1)O2)c1cc(O)c(O)c(O)c1`?
A: neuronal differentiation score (ReNCell VM [1]; library: Spectrum): inactive: -1; dopaminergic neuron differentiation score (ReNCell VM [2]; library: Spectrum): inactive: 0

Q: `CCCCOc1cc(C(=O)NCCN(CC)CC)c2ccccc2n1` [Dibucaine] was tested. Which neuronal differentiation score (ReNCell VM [1]; library: Prestwick) did it give?
A: Its neuronal differentiation score is inactive: 0.

Q: And the “dopaminergic neuron differentiation score” value (ReNCell VM [2]; library: Prestwick)?
A: Its value is inactive: 0.

Q: Which neuronal differentiation score (ReNCell VM [1]; library: Prestwick) does the source give for `COC1=CC(=O)C[C@@H](C)[C@]12Oc1c(Cl)c(OC)cc(OC)c1C2=O` [Griseofulvin] here?
A: Its neuronal differentiation score is inactive: 0.

Q: What about the “dopaminergic neuron differentiation score” value (ReNCell VM [2]; library: Prestwick) of the same molecule?
A: Its value is inactive: 0.

Q: Which results are given for `OCCN1CCN(CCCN2c3ccccc3Sc3ccc(Cl)cc32)CC1`?
A: neuronal differentiation score (ReNCell VM [1]; library: Spectrum): inactive: 0; dopaminergic neuron differentiation score (ReNCell VM [2]; library: Spectrum): inactive: 0

Q: With `CO[C@H]1C[C@H](O[C@H]2[C@H](C)[C@@H](O[C@@H]3O[C@H](C)C[C@H](N(C)C)[C@H]3OC(C)=O)[C@@H](C)C[C@@]3(CO3)C(=O)[C@H](C)[C@@H](OC(C)=O)[C@@H](C)[C@@H](C)OC(=O)[C@@H]2C)O[C@@H](C)[C@@H]1OC(C)=O` [Troleandomycin] as the molecule, how does the neuronal differentiation score (ReNCell VM [1]; library: Prestwick) read?
A: Its neuronal differentiation score is inactive: 0.

Q: What about the “dopaminergic neuron differentiation score” value (ReNCell VM [2]; library: Prestwick) of the same molecule?
A: Its value is inactive: 0.

Q: For `CCN(CC)CC#CCOC(=O)C(O)(c1ccccc1)C1CCCCC1` (stereo not given), which neuronal differentiation score (ReNCell VM [1]; library: Spectrum) is on record?
A: Its neuronal differentiation score is inactive: 0.

Q: What about the “dopaminergic neuron differentiation score” value (ReNCell VM [2]; library: Spectrum) of the same molecule?
A: Its value is inactive: 0.

Q: `C[C@H]1[C@H](C)CC[C@]2(C(=O)O[C@@H]3O[C@H](CO[C@@H]4O[C@H](CO)[C@@H](O[C@@H]5O[C@H](C)[C@H](O)[C@@H](O)[C@H]5O)[C@H](O)[C@H]4O)[C@@H](O)[C@H](O)[C@H]3O)CC[C@]3(C)C(=CC[C@@H]4[C@@]5(C)C[C@@H](O)[C@H](O)[C@@](C)(CO)[C@@H]5CC[C@]43C)[C@H]12` [Asiaticoside] was tested. Which neuronal differentiation score (ReNCell VM [1]; library: Phytochemical) did it give?
A: Its neuronal differentiation score is inactive: -1.

Q: And the “dopaminergic neuron differentiation score” value (ReNCell VM [2]; library: Phytochemical)?
A: The value was inactive: 0.

Q: With `Clc1ccc(C(c2ccccc2Cl)C(Cl)Cl)cc1` (stereo not given) [1-(2-Chlorophenyl)-1-(4-chlorophenyl)-2,2-dichloroethane] as the molecule, how does the neuronal differentiation score (ReNCell VM [1]; library: LOPAC) read?
A: The neuronal differentiation score was inactive: 0.

Q: And the “dopaminergic neuron differentiation score” value (ReNCell VM [2]; library: LOPAC)?
A: The value was inactive: 0.

Q: How did the neuronal differentiation score (ReNCell VM [1]; library: LOPAC) turn out when `N=C(N)NCCCCN` [Agmatine sulfate] was run?
A: Its neuronal differentiation score is inactive: 0.

Q: And the “dopaminergic neuron differentiation score” value (ReNCell VM [2]; library: LOPAC)?
A: Its value is inactive: 0.

Q: What does the source list for `NO` [Hydroxylamine hydrochloride]?
A: neuronal differentiation score (ReNCell VM [1]; library: LOPAC): inactive: 0; dopaminergic neuron differentiation score (ReNCell VM [2]; library: LOPAC): inactive: 0

Q: For `O=C(O)P(=O)(O)O`, which neuronal differentiation score (ReNCell VM [1]; library: Spectrum) is on record?
A: The neuronal differentiation score was inactive: 0.

Q: And the “dopaminergic neuron differentiation score” value (ReNCell VM [2]; library: Spectrum)?
A: The value was inactive: 0.

Q: Which results are given for `COc1cc2c(cc1O)-c1ccccc1CN(C)C2` [3-methoxy-6-methyl-6,7-dihydro-5h-dibenzo[c,e]azepin-2-ol]?
A: neuronal differentiation score (ReNCell VM [1]; library: Natural): inactive: 0; dopaminergic neuron differentiation score (ReNCell VM [2]; library: Natural): inactive: 0

Q: Which neuronal differentiation score (ReNCell VM [1]; library: Spectrum) does the source give for `Cc1c(N)c(=O)n(-c2ccccc2)n1C` here?
A: The neuronal differentiation score was inactive: 0.

Q: And the “dopaminergic neuron differentiation score” value (ReNCell VM [2]; library: Spectrum)?
A: Its value is inactive: 0.

Q: What does the source list for `CC(C)(Oc1ccc(CCNC(=O)c2ccc(Cl)cc2)cc1)C(=O)O` [Bezafibrate]?
A: neuronal differentiation score (ReNCell VM [1]; library: Prestwick): inactive: 0; dopaminergic neuron differentiation score (ReNCell VM [2]; library: Prestwick): inactive: 0

Q: Which neuronal differentiation score (ReNCell VM [1]; library: LOPAC) does the source give for `O=C(O)CNC(=O)C(CS)Cc1ccccc1` (racemic) [DL-Thiorphan] here?
A: Its neuronal differentiation score is inactive: 0.

Q: And the “dopaminergic neuron differentiation score” value (ReNCell VM [2]; library: LOPAC)?
A: The value was inactive: 0.

Q: What does the source list for `CC(=O)OC1CC2CCC1(C)C2(C)C` (stereo not given)?
A: neuronal differentiation score (ReNCell VM [1]; library: Spectrum): inactive: 0; dopaminergic neuron differentiation score (ReNCell VM [2]; library: Spectrum): inactive: 0

Q: With `Cc1nc2ccccc2n1Cc1ccc(Cl)cc1` as the molecule, how does the neuronal differentiation score (ReNCell VM [1]; library: Spectrum) read?
A: Its neuronal differentiation score is inactive: 0.

Q: And the “dopaminergic neuron differentiation score” value (ReNCell VM [2]; library: Spectrum)?
A: The value was inactive: 0.

Q: What does the source list for `CCCNC(=O)N1N=C(c2ccc(N)cc2)c2cc3c(cc2C1C)OCO3` (stereo not given)?
A: neuronal differentiation score (ReNCell VM [1]; library: Tocriscreen): inactive: 0; dopaminergic neuron differentiation score (ReNCell VM [2]; library: Tocriscreen): inactive: 0

Q: `CC(=O)O[C@H]1C[C@@]2(C)[C@@H](C[C@@H](O)[C@H]3[C@@]4(C)CC[C@@H](O)[C@@H](C)[C@@H]4CC[C@@]32C)/C1=C(\CCC=C(C)C)C(=O)O` [Fusidic acid sodium salt] was tested. Which neuronal differentiation score (ReNCell VM [1]; library: Prestwick) did it give?
A: The neuronal differentiation score was inactive: 0.

Q: What about the “dopaminergic neuron differentiation score” value (ReNCell VM [2]; library: Prestwick) of the same molecule?
A: The value was inactive: 0.

Q: How did the neuronal differentiation score (ReNCell VM [1]; library: LOPAC) turn out when `CCCCCN(CCCCC)C(=O)C(CCC(=O)O)NC(=O)c1ccc(Cl)c(Cl)c1` (stereo not given) [Lorglumide sodium] was run?
A: Its neuronal differentiation score is inactive: 0.

Q: What about the “dopaminergic neuron differentiation score” value (ReNCell VM [2]; library: LOPAC) of the same molecule?
A: Its value is inactive: 0.

Q: How did the neuronal differentiation score (ReNCell VM [1]; library: Spectrum) turn out when `CC(=O)N(CC(O)CO)c1c(I)c(C(=O)NCCO)c(I)c(C(=O)NCC(O)CO)c1I` (stereo not given) was run?
A: The neuronal differentiation score was inactive: 0.

Q: And the “dopaminergic neuron differentiation score” value (ReNCell VM [2]; library: Spectrum)?
A: The value was inactive: 0.

Q: With `Cc1cccc(CN2CCN(C(c3ccccc3)c3ccc(Cl)cc3)CC2)c1` (stereo not given) [Meclozine dihydrochloride] as the molecule, how does the neuronal differentiation score (ReNCell VM [1]; library: Prestwick) read?
A: The neuronal differentiation score was inactive: 0.

Q: And the “dopaminergic neuron differentiation score” value (ReNCell VM [2]; library: Prestwick)?
A: The value was inactive: 0.

Q: How did the neuronal differentiation score (ReNCell VM [1]; library: Prestwick) turn out when `CC(C)(Sc1cc(C(C)(C)C)c(O)c(C(C)(C)C)c1)Sc1cc(C(C)(C)C)c(O)c(C(C)(C)C)c1` [Probucol] was run?
A: The neuronal differentiation score was inactive: 0.

Q: What about the “dopaminergic neuron differentiation score” value (ReNCell VM [2]; library: Prestwick) of the same molecule?
A: Its value is inactive: 0.

Q: Which results are given for `C=CCSCC=C`?
A: neuronal differentiation score (ReNCell VM [1]; library: Spectrum): inactive: 0; dopaminergic neuron differentiation score (ReNCell VM [2]; library: Spectrum): inactive: 0

Q: What does the source list for `CC(N)C12CC3CC(CC(C3)C1)C2` (stereo not given) [Rimantadine Hydrochloride]?
A: neuronal differentiation score (ReNCell VM [1]; library: Prestwick): inactive: 0; dopaminergic neuron differentiation score (ReNCell VM [2]; library: Prestwick): inactive: 0

Q: Which results are given for `NC(Cc1cc(I)c(Oc2cc(I)c(O)c(I)c2)c(I)c1)C(=O)O` (stereo not given) [Thyroxine (L)]?
A: neuronal differentiation score (ReNCell VM [1]; library: Prestwick): inactive: 0; dopaminergic neuron differentiation score (ReNCell VM [2]; library: Prestwick): inactive: 0
